Experimental data taken from the supplement of paper PMC12067093, “Discovery and optimisation of a covalent ligand for TRIM25 and its application to targeted protein ubiquitination” (Chemical Science, 2025).
Some of the results follow.

The chains behind the UniProt entries cited, without tags or fusion partners. Where a name states a change or a piece, a line headed by the entry shows the natural chain unless it says otherwise.
UniProt O43660: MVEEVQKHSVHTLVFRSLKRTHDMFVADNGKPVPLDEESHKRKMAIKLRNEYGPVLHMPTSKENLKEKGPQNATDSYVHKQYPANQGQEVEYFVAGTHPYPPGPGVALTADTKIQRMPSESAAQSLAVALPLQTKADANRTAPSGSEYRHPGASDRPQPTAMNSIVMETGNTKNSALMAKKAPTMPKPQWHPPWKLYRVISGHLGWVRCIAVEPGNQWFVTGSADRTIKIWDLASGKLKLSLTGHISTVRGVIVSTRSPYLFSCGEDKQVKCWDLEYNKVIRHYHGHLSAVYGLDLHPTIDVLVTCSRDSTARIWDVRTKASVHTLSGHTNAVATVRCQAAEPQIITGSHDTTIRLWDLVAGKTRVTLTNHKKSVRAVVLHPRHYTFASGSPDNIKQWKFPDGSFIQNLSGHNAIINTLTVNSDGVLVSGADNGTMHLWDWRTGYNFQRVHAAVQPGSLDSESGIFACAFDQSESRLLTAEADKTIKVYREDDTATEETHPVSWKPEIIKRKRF
UniProt P29590: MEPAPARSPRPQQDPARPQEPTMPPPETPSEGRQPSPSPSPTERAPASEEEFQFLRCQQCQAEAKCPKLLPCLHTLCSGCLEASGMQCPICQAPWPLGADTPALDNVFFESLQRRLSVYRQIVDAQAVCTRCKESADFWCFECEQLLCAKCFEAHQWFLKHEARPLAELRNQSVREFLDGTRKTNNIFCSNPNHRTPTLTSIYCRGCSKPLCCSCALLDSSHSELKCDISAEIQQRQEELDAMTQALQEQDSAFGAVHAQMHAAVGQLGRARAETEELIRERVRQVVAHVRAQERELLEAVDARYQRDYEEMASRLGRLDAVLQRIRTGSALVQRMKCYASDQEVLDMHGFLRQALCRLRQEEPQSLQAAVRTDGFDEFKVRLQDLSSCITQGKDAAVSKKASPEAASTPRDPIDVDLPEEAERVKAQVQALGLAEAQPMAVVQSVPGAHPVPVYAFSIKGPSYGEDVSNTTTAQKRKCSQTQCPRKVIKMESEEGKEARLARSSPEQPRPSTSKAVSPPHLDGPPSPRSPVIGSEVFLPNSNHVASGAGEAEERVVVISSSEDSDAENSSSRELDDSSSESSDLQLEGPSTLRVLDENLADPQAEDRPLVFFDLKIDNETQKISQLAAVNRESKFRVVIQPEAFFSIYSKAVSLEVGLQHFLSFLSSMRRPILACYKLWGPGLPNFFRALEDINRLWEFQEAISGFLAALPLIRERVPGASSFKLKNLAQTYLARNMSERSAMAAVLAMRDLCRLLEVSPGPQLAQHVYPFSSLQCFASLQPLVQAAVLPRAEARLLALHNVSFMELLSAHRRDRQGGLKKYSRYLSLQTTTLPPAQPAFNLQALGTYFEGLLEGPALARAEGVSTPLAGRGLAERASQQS
UniProt Q9Y263: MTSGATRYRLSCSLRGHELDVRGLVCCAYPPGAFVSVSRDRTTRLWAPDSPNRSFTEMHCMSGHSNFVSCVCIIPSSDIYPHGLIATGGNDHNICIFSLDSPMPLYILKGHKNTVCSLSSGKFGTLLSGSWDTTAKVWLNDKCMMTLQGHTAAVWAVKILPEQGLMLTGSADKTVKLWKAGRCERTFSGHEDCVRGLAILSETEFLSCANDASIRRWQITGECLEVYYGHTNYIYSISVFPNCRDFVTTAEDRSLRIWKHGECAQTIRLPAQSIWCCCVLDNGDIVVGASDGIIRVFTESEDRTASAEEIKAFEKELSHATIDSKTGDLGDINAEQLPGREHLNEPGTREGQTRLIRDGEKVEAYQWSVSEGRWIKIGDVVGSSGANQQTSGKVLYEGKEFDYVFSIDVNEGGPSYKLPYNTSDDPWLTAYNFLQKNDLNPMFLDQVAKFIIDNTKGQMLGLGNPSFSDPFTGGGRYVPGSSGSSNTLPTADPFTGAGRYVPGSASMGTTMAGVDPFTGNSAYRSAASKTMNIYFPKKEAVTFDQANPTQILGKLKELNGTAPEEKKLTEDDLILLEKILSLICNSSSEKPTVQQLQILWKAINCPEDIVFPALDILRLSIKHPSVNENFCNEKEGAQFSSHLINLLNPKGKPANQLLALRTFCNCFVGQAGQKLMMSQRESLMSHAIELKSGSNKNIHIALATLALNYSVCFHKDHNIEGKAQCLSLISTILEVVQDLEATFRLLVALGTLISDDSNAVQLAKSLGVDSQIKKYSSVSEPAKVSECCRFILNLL
UniProt P16885: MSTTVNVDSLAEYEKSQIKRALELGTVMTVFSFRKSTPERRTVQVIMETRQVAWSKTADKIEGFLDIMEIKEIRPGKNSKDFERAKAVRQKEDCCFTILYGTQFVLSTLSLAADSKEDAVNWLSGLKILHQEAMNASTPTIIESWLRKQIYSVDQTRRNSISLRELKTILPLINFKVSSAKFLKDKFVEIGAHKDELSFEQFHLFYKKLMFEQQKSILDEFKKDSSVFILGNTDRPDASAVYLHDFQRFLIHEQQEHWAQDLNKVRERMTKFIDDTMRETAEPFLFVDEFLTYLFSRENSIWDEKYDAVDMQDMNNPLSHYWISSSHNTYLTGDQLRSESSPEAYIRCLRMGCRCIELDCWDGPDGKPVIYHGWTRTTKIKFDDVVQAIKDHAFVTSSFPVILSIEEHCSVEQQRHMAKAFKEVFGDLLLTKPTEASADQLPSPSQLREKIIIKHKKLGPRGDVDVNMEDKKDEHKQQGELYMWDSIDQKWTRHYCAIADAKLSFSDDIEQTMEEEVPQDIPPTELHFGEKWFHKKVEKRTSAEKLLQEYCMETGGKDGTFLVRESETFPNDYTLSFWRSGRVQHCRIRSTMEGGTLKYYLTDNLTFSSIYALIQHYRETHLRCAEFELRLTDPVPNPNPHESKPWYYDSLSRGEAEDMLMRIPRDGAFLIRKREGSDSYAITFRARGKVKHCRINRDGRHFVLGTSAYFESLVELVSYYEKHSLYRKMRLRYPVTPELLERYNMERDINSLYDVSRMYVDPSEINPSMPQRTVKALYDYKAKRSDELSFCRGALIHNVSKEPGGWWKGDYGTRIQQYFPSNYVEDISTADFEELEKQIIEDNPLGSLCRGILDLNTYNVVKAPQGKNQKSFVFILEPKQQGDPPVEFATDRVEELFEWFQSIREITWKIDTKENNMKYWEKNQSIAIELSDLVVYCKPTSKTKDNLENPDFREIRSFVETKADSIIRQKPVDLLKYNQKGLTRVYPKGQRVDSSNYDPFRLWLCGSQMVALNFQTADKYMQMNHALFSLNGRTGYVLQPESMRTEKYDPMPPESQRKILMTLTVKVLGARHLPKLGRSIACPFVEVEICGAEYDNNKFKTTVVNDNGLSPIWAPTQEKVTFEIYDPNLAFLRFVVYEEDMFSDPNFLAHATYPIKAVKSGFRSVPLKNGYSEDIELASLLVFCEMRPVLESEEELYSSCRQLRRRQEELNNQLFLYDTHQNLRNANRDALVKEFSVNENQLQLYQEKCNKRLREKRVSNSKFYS
UniProt O00329: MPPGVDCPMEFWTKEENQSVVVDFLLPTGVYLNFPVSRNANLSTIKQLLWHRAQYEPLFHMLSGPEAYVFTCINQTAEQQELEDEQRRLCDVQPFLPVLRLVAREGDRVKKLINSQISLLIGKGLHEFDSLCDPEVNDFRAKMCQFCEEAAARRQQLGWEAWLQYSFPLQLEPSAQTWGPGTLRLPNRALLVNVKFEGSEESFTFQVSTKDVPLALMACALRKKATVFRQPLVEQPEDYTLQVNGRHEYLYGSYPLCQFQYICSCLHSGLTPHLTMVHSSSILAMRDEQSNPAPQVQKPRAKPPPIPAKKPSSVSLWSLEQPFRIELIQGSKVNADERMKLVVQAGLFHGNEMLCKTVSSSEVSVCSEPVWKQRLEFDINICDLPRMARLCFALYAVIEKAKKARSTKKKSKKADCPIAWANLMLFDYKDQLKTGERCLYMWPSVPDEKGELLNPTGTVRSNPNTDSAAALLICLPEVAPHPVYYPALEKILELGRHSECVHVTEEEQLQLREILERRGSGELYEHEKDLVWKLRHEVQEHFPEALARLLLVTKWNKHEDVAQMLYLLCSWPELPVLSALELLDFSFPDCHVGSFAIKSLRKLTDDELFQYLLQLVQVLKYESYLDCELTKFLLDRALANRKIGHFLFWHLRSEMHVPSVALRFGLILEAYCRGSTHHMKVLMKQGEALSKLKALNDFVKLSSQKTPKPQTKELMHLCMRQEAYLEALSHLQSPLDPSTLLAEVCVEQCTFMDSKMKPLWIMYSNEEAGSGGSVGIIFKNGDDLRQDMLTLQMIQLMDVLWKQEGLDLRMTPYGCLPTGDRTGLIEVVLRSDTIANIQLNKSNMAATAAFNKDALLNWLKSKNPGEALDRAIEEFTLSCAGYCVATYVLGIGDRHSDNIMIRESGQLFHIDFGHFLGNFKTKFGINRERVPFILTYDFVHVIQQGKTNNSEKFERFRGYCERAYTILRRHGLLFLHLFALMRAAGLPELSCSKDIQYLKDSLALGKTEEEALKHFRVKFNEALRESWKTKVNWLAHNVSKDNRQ
UniProt Q8IYS1: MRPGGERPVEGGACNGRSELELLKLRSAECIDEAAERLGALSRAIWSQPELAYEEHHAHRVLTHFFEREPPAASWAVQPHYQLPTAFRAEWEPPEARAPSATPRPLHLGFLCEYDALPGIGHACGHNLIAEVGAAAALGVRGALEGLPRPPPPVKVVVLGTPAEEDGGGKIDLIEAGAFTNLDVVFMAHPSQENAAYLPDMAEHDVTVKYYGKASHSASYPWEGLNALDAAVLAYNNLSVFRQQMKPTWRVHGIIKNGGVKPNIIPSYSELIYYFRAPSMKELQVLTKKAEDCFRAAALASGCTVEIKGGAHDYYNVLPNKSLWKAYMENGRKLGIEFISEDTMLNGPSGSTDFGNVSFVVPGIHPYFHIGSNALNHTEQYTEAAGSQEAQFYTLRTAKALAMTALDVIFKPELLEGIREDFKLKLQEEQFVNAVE
UniProt Q13526, whole entry, looked up: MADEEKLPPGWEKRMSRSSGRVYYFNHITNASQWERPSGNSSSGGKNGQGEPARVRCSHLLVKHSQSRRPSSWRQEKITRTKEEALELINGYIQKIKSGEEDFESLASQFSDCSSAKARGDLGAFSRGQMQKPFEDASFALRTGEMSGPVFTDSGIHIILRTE
UniProt Q8NHP8: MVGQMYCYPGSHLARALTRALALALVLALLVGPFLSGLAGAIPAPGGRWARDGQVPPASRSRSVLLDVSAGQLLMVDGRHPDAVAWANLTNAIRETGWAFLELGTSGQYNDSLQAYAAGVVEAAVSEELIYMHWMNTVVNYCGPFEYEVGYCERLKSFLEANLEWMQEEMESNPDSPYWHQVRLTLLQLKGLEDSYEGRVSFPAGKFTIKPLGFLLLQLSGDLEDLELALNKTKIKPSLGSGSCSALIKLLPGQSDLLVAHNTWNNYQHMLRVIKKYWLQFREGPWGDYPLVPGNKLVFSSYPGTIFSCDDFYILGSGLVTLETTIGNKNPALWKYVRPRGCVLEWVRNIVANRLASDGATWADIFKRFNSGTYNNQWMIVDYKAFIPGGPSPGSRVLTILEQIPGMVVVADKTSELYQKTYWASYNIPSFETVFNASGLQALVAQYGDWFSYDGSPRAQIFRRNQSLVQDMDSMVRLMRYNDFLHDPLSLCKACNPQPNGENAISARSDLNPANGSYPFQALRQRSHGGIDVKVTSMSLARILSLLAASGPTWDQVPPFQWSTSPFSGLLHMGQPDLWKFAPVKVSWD
UniProt P08567: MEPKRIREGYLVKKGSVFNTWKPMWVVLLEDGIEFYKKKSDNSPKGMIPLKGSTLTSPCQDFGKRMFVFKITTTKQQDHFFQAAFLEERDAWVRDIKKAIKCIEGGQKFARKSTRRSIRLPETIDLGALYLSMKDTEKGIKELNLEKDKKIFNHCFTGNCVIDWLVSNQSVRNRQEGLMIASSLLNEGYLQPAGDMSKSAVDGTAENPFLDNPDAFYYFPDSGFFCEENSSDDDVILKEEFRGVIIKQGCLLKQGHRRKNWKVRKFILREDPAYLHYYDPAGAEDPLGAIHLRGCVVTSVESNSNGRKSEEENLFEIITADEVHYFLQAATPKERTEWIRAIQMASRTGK

Compound: Cc1cc(ccc1-c1ccccc1)C(=O)N1CCCN(CC1)C(=O)CCl [compound 10]
Assay: probe-labelled cysteine peptide fold change vs DMSO (competition) (log2 fold change); higher = less target engagement (more negative = stronger competition)
Settings: THP-1, incubation time: 4 h
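Note: competitive profiling in live THP-1 cells: cysteine peptides tagged with an iodoacetamide desthiobiotin (IA-DTB) probe, intensity after compound treatment relative to DMSO-treated cells.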

Row | Target | probe-labelled cysteine peptide fold change (10 µM) | probe-labelled cysteine peptide fold change (50 µM)
1 | PLRG1_O43660_272_CWDLEYNK (UniProt O43660) | -0.169 | 0.269
2 | PNKP_Q96T60_447_CFLFTATLEQAR (UniProt Q96T60) | -0.0588 | -0.12
3 | PMPCA_Q10713_140+142_HGGICDCQTSR (UniProt Q10713) | 0.0675 | -0.831
4 | PLEC_Q15149_965_QVEVTVHKGDECQLVGPAQPSHWK (UniProt Q15149) | 0.024 | -0.0327
5 | PKN1_Q16512_662_DEVESLMCEK (UniProt Q16512) | 0.0527 | 0.194
6 | PML_P29590_189_TNNIFCSNPNHR (UniProt P29590) | 0.0467 | 0.0847
7 | PLAA_Q9Y263_263_HGECAQTIR (UniProt Q9Y263) | 0.0749 | -0.21
8 | PLEKHA2_Q9HB19_228_FFALDDFTICYFK (UniProt Q9HB19) | 0.385 | 0.142
9 | PML_P29590_143_ESADFWCFECEQLLCAK (UniProt P29590) | -0.0013 | -0.0429
10 | PLEKHF2_Q9H8W4_186_CGFVVCGPCSEK (UniProt Q9H8W4) | -0.0103 | -0.0691
11 | POFUT1_Q9H488_140_KTCPMK (UniProt Q9H488) | -0.0727 | -0.0923
12 | PLXND1_Q9Y4D7_752_CEASPNPTSPQDCPR (UniProt Q9Y4D7) | 0.0199 | -0.2
13 | PLEC_Q15149_950_LPLLAVCDYK (UniProt Q15149) | 0.0855 | -0.00812
14 | PLEKHM2_Q8IWE5_28_KLQSYFAACEDEIPAIR (UniProt Q8IWE5) | 0.132 | 0.0139
15 | PLEC_Q15149_950_GRLPLLAVCDYK (UniProt Q15149) | 0.0593 | -0.129
16 | PLCG2_P16885_937_NQSIAIELSDLVVYCKPTSK (UniProt P16885) | 0.107 | 0.0145
17 | PLAA_Q9Y263_208_GLAILSETEFLSCANDASIR (UniProt Q9Y263) | 0.00615 | 0.0556
18 | PLCG1_P19174_12_AGAASPCANGCGPGAPSDAEVLHLCR (UniProt P19174) | -0.394 | -0.544
19 | PIK3CD_O00329_500_HSECVHVTEEEQLQLR (UniProt O00329) | -0.182 | -0.107
20 | PM20D2_Q8IYS1_303_AAALASGCTVEIK (UniProt Q8IYS1) | 0.0905 | 0.222

2 entries from above in a different format.
Row,Target,probe-labelled cysteine peptide fold change (10 µM),probe-labelled cysteine peptide fold change (50 µM)
19,PIK3CD_O00329_500_HSECVHVTEEEQLQLR (UniProt O00329),-0.182,-0.107
20,PM20D2_Q8IYS1_303_AAALASGCTVEIK (UniProt Q8IYS1),0.0905,0.222

(further entries)

Row | Target | probe-labelled cysteine peptide fold change (10 µM) | probe-labelled cysteine peptide fold change (50 µM)
21 | PNKP_Q96T60_409_CVTTCETALK (UniProt Q96T60) | -0.0957 | -0.0399
22 | PIN1_Q13526_113_SGEEDFESLASQFSDCSSAK (UniProt Q13526) | -0.176 | -0.424
23 | PML_P29590_151_CFEAHQWFLK (UniProt P29590) | -0.0418 | -0.379
24 | PLBD2_Q8NHP8_342_GCVLEWVR (UniProt Q8NHP8) | -0.405 | 0.105
25 | PLEC_Q15149_992_VLSSSGSEAAVPSVCFLVPPPNQEAQEAVTRLEAQHQALVTLWHQLHVDMK (UniProt Q15149) | -0.171 | -0.237
26 | PLXNB2_O15031_637_WTCQWDLR (UniProt O15031) | -0.115 | -0.0907
27 | PLEK_P08567_295_GCVVTSVESNSNGR (UniProt P08567) | -0.14 | -0.138
28 | PLD3_Q8IV08_366_LLISCWGHSEPSMR (UniProt Q8IV08) | -0.305 | 0.13
29 | PLAA_Q9Y263_605_AINCPEDIVFPALDILR (UniProt Q9Y263) | -0.179 | 0.232
30 | PLXND1_Q9Y4D7_345_KLTESYIQLGLQCAGGAGR (UniProt Q9Y4D7) | -0.284 | -0.519
31 | PML_P29590_189_KTNNIFCSNPNHR (UniProt P29590) | 0.0485 | -0.385
32 | PITHD1_Q9GZP4_187_HEVTICNYEASANPADHR (UniProt Q9GZP4) | -0.0875 | -0.312
33 | PLBD2_Q8NHP8_495_ACNPQPNGENAISAR (UniProt Q8NHP8) | 0.043 | -0.493
34 | PML_P29590_479_CSQTQCPR (UniProt P29590) | -0.126 | -0.65
35 | PLEC_Q15149_3336_CRPDQLTGLSLLPLSEK (UniProt Q15149) | -0.196 | -0.0466
36 | PLEC_Q15149_4245+4254_CITDPQTGLCLLPLK (UniProt Q15149) | 0.808 | 0.435
37 | PLCG2_P16885_409_DHAFVTSSFPVILSIEEHCSVEQQR (UniProt P16885) | 0.178 | 0.433
38 | PLRG1_O43660_338_CQAAEPQIITGSHDTTIR (UniProt O43660) | -0.149 | 0.441
39 | PLAUR_Q03405_98_ITSLTEVVCGLDLCNQGNSGR (UniProt Q03405) | -0.279 | -0.355
